Results are given in words; binding and its absence hold for the method and conditions named. Binding seen in cells or lysates may run through a third protein. Some results given as binding are weak or reduced against the parent protein; the word gives no strength. Tags and fused reporters may be left off the sequences shown.
Experiments:
[1] = molecular target: HA- and myc-tagged WT Orai1 (human) (UniProt Q96D31); experiment: co-IP; as a2, at ambient pH 6.2; anti-HA pull down of HA- and myc-tagged Orai1, blot for GFP
[2] = molecular target: D112A–S218G–N223S–Orai1 (human) (UniProt Q96D31); experiment: as above
[3] = molecular target: HA- and myc-tagged WT Orai1 (human) (UniProt Q96D31); experiment: co-IP; HEK293T co-transfected with HA-inserted Orai1 and Flotillin-1–GFP; 1% Triton X-100 lysis buffer (150 mM NaCl, 20 mM Tris–HCl pH 7.5); anti-HA antibody and protein A Sepharose, 4°C, 2 hours; blots with anti-GFP and anti-myc
[4] = molecular target: HA- and myc-tagged S218G–N223S–Orai1 (human) (UniProt Q96D31); experiment: as above
[5] = molecular target: HA- and myc-tagged WT Orai1 (human) (UniProt Q96D31); experiment: co-IP; as a2, at ambient pH 7.4; anti-HA pull down of HA- and myc-tagged Orai1, blot for GFP
[6] = molecular target: HA- and myc-tagged S218G–N223S–Orai1 (human) (UniProt Q96D31); experiment: as above
[7] = molecular target: D112A–S218G–N223S–Orai1 (human) (UniProt Q96D31); experiment: as above

Amino acid sequences for entries named in this document (tags omitted). A change or cut given only in a name is not applied to a line headed by its entry.
UniProt Q96D31: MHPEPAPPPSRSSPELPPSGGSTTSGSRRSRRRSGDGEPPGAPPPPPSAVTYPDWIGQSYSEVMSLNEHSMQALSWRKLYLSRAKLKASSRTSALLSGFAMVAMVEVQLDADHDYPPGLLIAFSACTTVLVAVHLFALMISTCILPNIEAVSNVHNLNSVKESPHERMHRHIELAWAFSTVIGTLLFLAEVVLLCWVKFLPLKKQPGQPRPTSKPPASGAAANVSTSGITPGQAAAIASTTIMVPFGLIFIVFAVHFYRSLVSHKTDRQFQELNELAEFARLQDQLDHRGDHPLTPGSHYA

binding [1]: binds | binding [2]: binds | binding [3]: binds | binding [4]: binds | binding [5]: binds | binding [6]: binds | binding [7]: binds
B1: Flotillin 1–GFP (protein, UniProt O75955 1-427)
chain: MFFTCGPNEAMVVSGFCRSPPVMVAGGRVFVLPCIQQIQRISLNTLTLNVKSEKVYTRHGVPISVTGIAQVKIQGQNKEMLAAACQMFLGKTEAEIAHIALETLEGHQRAIMAHMTVEEIYKDRQKFSEQVFKVASSDLVNMGISVVSYTLKDIHDDQDYLHSLGKARTAQVQKDARIGEAEAKRDAGIREAKAKQEKVSAQYLSEIEMAKAQRDYELKKAAYDIEVNTRRAQADLAYQLQVAKTKQQIEEQRVQVQVVERAQQVAVQEQEIARREKELEARVRKPAEAERYKLERLAEAEKSQLIMQAEAEAASVRMRGEAEAFAIGARARAEAEQMAKKAEAFQLYQEAAQLDMLLEKLPQVAEEISGPLTSANKITLVSSGSGTMGAAKVTGEVLDILTRLPESVERLTGVSISQVNHKPLRTA

Reference: paper PMC7372555
